Results as given in US20190284243A1, “BINDING PEPTIDES” (University of Copenhagen, priority 2016, published 2019).

What was measured:
Interleukin 1 [1] = test: sandwich assay on PEGA beads, 50 nM IL1, 100 nM peptide B, ROX fluorescence
Interleukin 1 [2] = test: sandwich assay on PEGA beads, 50 nM IL1, 20 min
Interleukin 1 [3] = test: fluorescence microscopy of two bead types incubated with IL1
Interleukin 1 [4] = test: fluorescence microscopy of two bead types incubated with 100 nM ROX-IL1
Interleukin 1 [5] = test: Table 1 grade; context bead
Interleukin 1 [6] = test: fluorescence microscopy of two bead types incubated with ROX-IL1

## ETDTYTETYPGYTSTWTITD (designed binder) [Ligand 1: …-Bead (SEQ ID NO: 5)]
Interleukin 1 [1]
  binding: binds
Interleukin 1 [2]
  binding: binds
Interleukin 1 [3]
  binding: binds
Interleukin 1 [4]
  binding: binds
Interleukin 1 [5]
  binding: binds

## TKTDRVTEPGRTMTFTGT (designed binder, N-terminal RhodamineX) [Ligand 2: RhodamineX-…-OH (SEQ ID NO: 7)]
Interleukin 1 [1]
  binding: binds
Interleukin 1 [2]
  binding: binds

## TETKTVTITRPKMTWTFTHTVTG (designed binder) [β-body SEQ ID NO: 1 (…)]
Interleukin 1 [6]
  binding: no binding (tested: 100 nM)

Results are given in words; binding and its absence hold for the method and conditions named. For some assays here: Binding can be weak; no strength is given.
